Measured values published in publication PMC10747250, “Structure-Based Optimization of 1,2,4-Triazole-3-Thione Derivatives: Improving Inhibition of NDM-/VIM-Type Metallo-β-Lactamases and Synergistic Activity on Resistant Bacteria” (Pharmaceuticals, 2023).

Assays:
E. coli MO-287 (NDM-1) = experiment: Synergy with meropenem, broth microdilution MIC; format: cell-based; conditions: Escherichia coli; MEM alone (Cpd: None)
Description: (§1) The potential synergistic activity of the three best inhibitors (CP 35, CP 56, and CP 57) was tested using the broth microdilution method on six MBL-producing multidrug-resistant clinical isolates. […] Although apparently modest, this increase in synergistic activity represents a significant improvement over the previous generation of triazole-thione β-lactamase inhibitors previous described by our group.

E. coli MO-978 (NDM1) = experiment: Synergy with meropenem, broth microdilution MIC; format: cell-based; conditions: Escherichia coli; MEM alone (Cpd: None)
Description: as §1

`C[C@@H](O)[C@H]1C(=O)N2C(C(=O)O)=C(S[C@@H]3CN[C@H](C(=O)N(C)C)C3)[C@H](C)[C@H]12` [MEM, meropenem, reference compound] gave an MIC (E. coli MO-287 (NDM-1)) of 64 mg/L and an MIC (E. coli MO-978 (NDM1)) of 256 mg/L.
